Test results from USRE30731E (priority 1977, dated 1981).

Assay: general procedure: Boc solid-phase peptide synthesis; 1.4% crosslinked 100-200 mesh phenolic resin from acetoxystyrene/styrene/divinylbenzene copolymer (phenyl ester linkage); DCCI (with pyridine, N-methyl morpholine or HOBt)
Conditions: whole synthesis; for isolated yield: overall

| Substance | isolated yield [%] | further results |
| --- | --- | --- |
| 5-amino-6-(4-hydroxyphenyl)-hexanoyl-glycyl-phenylalanyl-methionine amide | 40 |  |
| BOC--Tyr--Gly--Gly--Phe--Met--OH |  | isolated yield (based on methionine originally coupled to the resin): 58% |
| 5-Amino-6-(4'-hdyroxyphenyl)-hexanoyl-glycyl-L-phenylalanyl-L-methionine a mide |  | isolated mass (scale 0.1 mmol): 41.7 mg |
| H-Tyr-Gly-Gly-Phe-Met-OH | 48 |  |
